Results are given in words; binding and its absence hold for the method and conditions named. Some results given as binding are weak or reduced against the parent protein; the word gives no strength.
Target: T1, human chemokine receptor CCR1 (human, UniProt P32246 1-355)
T1 construct: whole, on cells; also called HEK293-CCR1 transfectants
T1 sequence (looked up): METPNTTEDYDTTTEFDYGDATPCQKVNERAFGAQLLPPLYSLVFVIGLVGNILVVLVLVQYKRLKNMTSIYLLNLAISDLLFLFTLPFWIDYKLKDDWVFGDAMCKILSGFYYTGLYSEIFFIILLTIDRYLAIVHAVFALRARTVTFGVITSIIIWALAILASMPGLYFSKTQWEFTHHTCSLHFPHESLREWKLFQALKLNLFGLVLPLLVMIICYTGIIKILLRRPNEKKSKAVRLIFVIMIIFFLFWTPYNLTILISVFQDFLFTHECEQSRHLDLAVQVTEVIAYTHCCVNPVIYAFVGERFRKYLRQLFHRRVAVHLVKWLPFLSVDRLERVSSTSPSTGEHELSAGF
Experiment: 125I-MIP-1α competition binding on HEK293-CCR1 cells

B1: MIP-1α (ligand, human, UniProt P10147 27-92, looked up)
chain: ADTPTACCFSYTSRQIPQNFIADYFETSSQCSKPGVIFLTKRSRQVCADPSEEWVQKYVSDLELSA
notes: also called macrophage inflammatory protein
- binding: binds

Reference: patent US20060034863A1 (CHEMOCENTRYX, published 2006)
